The supplement of paper PMC6411743
± gives the standard deviation of the averaged measurements. The list shows a part of the results.

Amino acid sequences for entries named in this document (tags omitted). A change or cut given only in a name is not applied to a line headed by its entry.
UniProt Q02241: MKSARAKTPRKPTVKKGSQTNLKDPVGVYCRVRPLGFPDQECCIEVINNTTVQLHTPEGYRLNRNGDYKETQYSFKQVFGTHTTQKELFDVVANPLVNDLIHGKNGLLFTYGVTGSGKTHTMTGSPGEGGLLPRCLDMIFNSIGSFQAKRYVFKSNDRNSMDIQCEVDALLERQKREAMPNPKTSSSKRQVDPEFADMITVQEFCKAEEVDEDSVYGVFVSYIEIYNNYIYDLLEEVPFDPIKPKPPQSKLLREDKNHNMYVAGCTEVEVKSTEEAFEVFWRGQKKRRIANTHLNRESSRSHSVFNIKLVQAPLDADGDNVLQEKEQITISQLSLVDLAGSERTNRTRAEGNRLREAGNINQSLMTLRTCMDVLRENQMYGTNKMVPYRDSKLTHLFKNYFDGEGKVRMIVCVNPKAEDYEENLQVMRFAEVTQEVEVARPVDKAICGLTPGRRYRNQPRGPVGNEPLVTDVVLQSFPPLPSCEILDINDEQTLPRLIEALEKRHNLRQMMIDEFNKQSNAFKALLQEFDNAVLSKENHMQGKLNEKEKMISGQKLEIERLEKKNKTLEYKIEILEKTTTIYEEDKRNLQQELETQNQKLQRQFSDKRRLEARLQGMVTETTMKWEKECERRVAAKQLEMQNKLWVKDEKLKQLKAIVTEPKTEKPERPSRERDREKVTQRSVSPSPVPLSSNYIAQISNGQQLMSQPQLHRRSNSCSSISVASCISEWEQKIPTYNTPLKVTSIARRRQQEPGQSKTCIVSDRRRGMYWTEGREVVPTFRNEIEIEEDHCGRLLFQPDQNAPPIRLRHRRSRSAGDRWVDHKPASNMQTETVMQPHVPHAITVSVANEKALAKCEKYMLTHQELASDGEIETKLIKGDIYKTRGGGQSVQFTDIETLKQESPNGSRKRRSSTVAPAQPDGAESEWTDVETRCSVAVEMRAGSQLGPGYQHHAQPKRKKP
UniProt Q9NQ48: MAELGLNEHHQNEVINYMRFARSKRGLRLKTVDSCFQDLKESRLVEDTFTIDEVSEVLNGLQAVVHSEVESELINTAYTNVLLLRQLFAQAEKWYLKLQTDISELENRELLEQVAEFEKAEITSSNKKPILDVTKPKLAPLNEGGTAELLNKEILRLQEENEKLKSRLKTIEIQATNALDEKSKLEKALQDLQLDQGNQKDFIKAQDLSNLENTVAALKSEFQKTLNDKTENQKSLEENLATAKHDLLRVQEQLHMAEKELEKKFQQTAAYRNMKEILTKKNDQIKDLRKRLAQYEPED
UniProt Q9BQF6: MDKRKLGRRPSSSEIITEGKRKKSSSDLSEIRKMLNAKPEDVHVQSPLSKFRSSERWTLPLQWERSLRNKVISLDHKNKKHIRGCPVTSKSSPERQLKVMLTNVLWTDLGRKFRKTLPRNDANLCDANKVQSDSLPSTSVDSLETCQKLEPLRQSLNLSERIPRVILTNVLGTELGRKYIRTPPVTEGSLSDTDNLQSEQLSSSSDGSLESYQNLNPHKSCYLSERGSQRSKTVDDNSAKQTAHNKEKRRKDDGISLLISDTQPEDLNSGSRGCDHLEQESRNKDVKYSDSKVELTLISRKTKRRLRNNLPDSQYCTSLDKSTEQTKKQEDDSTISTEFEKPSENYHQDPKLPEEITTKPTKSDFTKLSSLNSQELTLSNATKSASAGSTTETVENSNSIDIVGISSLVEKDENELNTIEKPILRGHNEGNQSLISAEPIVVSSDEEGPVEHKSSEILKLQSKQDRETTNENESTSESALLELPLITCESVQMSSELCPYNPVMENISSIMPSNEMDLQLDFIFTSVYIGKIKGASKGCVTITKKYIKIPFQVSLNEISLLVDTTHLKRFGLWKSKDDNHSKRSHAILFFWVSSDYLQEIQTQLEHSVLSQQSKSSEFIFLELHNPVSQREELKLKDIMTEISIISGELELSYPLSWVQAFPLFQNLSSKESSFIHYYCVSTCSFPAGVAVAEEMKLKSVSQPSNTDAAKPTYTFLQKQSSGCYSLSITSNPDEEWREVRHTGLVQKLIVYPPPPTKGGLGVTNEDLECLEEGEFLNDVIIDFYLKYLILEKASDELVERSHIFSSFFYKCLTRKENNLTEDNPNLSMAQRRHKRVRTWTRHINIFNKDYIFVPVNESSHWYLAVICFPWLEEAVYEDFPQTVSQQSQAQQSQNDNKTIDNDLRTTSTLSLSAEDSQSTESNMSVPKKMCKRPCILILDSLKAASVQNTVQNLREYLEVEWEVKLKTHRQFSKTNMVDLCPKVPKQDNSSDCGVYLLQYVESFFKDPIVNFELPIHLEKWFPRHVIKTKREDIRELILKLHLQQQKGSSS
UniProt O94952: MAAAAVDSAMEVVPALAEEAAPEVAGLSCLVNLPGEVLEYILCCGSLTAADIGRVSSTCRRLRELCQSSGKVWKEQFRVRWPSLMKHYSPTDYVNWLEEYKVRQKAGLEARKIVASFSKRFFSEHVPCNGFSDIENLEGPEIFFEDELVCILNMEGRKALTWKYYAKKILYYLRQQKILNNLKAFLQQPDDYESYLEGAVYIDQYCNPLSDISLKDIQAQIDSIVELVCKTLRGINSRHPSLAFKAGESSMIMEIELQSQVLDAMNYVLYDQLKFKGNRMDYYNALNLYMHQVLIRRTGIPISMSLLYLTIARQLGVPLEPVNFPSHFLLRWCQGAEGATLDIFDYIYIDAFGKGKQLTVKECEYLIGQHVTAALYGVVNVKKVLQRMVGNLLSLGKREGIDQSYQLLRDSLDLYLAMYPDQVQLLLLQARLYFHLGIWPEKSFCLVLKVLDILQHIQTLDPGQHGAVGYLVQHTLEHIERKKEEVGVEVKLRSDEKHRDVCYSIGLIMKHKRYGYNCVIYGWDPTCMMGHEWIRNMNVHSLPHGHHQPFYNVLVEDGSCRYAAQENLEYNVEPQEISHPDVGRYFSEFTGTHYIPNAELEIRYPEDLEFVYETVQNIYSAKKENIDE
UniProt Q9Y296, whole entry: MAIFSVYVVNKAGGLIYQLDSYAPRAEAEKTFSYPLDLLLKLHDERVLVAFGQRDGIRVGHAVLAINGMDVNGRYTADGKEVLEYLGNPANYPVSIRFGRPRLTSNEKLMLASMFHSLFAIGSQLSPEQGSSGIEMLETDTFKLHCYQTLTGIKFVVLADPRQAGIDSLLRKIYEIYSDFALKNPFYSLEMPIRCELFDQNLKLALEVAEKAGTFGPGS

Compound: Nc1nc2c(ncn2[C@@H]2O[C@H](COP(=O)(O)OP(=O)(O)OP(=O)(O)O)[C@@H](O)[C@H]2O)c(=O)[nH]1 [guanosine triphosphate]
Test: NP40-soluble protein abundance relative to vehicle (solubility fold change) (ratio); higher = more soluble protein in presence of GTP
Experimental: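 Solubility proteome profiling in Jurkat crude lysate. Lysate was treated with Mg-GTP (0.1-10 mM) for 10 min at room temperature and 3 min at 37 °C, then solubilised with 0.8% NP40 and benzonase, followed by ultracentrifugation. Proteins were quantified by TMT10 LC-MS/MS; the value is the NP40-soluble abundance relative to the NP40-processed vehicle, from 3 independent experiments.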

Target | NP40-soluble protein abundance (concentration: 0.1mM) | NP40-soluble protein abundance (concentration: 0.5mM) | NP40-soluble protein abundance (concentration: 1mM) | NP40-soluble protein abundance (concentration: 2mM) | NP40-soluble protein abundance (concentration: 4mM) | NP40-soluble protein abundance (concentration: 6mM) | NP40-soluble protein abundance (concentration: 8mM) | NP40-soluble protein abundance (concentration: 10mM)
H7BYN4 and related entries (UniProt Q02241) | 1.1 ± 0.048 | 1.03 ± 0.036 | 1.0707 ± 0.00082 | 1.09 ± 0.021 | 1.114 ± 0.0076 | 1.13 ± 0.046 | 1.12 ± 0.084 | 1.09 ± 0.041
H7C488 and related entries (UniProt Q9NQ48) | 0.87 ± 0.13 | 0.797 ± 0.028 | 1.04 ± 0.17 | 1.05 ± 0.073 | 1.02 ± 0.14 | 1.01 ± 0.088 | 0.917 ± 0.18 | 1.16 ± 0.31
J3QT09 and related entries (UniProt Q9BQF6) | 1.01 ± 0.16 | 1.01 ± 0.15 | 0.959 ± 0.13 | 0.943 ± 0.068 | 1.02 ± 0.21 | 0.986 ± 0.11 | 0.959 ± 0.13 | 0.943 ± 0.12
H0YIE9 and related entries (UniProt O94952) | 1.19 ± 0.045 | 1.03 ± 0.091 | 1.05 ± 0.013 | 1.04 ± 0.12 | 1.12 ± 0.014 | 0.978 ± 0.078 | 1.08 ± 0.035 | 0.921 ± 0.089
J3KP27 and related entries (UniProt Q9Y296) | 0.979 ± 0.05 | 0.975 ± 0.081 | 0.94 ± 0.06 | 0.932 ± 0.065 | 0.92 ± 0.052 | 0.895 ± 0.081 | 0.92 ± 0.011 | 0.884 ± 0.029
